{
  "source": "paper PMC10766610",
  "about": "“DCAF1-based PROTACs with activity against clinically validated targets overcoming intrinsic- and acquired-degrader resistance” (Nature Communications, 2024)",
  "binders": {"B1": {"name": "CUL4B, Q13620 1-913 (protein)", "chain": "MMSQSSGSGDGNDDEATTSKDGGFSSPSPSAAAAAQEVRSATDGNTSTTPPTSAKKRKLNSSSSSSSNSSNEREDFDSTSSSSSTPPLQPRDSASPSTSSFCLGVSVAASSHVPIQKKLRFEDTLEFVGFDAKMAEESSSSSSSSSPTAATSQQQQLKNKSILISSVASVHHANGLAKSSTTVSSFANSKPGSAKKLVIKNFKDKPKLPENYTDETWQKLKEAVEAIQNSTSIKYNLEELYQAVENLCSYKISANLYKQLRQICEDHIKAQIHQFREDSLDSVLFLKKIDRCWQNHCRQMIMIRSIFLFLDRTYVLQNSMLPSIWDMGLELFRAHIISDQKVQNKTIDGILLLIERERNGEAIDRSLLRSLLSMLSDLQIYQDSFEQRFLEETNRLYAAEGQKLMQEREVPEYLHHVNKRLEEEADRLITYLDQTTQKSLIATVEKQLLGEHLTAILQKGLNNLLDENRIQDLSLLYQLFSRVRGGVQVLLQQWIEYIKAFGSTIVINPEKDKTMVQELLDFKDKVDHIIDICFLKNEKFINAMKEAFETFINKRPNKPAELIAKYVDSKLRAGNKEATDEELEKMLDKIMIIFRFIYGKDVFEAFYKKDLAKRLLVGKSASVDAEKSMLSKLKHECGAAFTSKLEGMFKDMELSKDIMIQFKQYMQNQNVPGNIELTVNILTMGYWPTYVPMEVHLPPEMVKLQEIFKTFYLGKHSGRKLQWQSTLGHCVLKAEFKEGKKELQVSLFQTLVLLMFNEGEEFSLEEIKQATGIEDGELRRTLQSLACGKARVLAKNPKGKDIEDGDKFICNDDFKHKLFRIKINQIQMKETVEEQASTTERVFQDRQYQIDAAIVRIMKMRKTLSHNLLVSEVYNQLKFPVKPADLKKRIESLIDRDYMERDKENPNQYNYIA"}},
  "biological_target": "DCAF1 (human (endogenous in HEK293T)), Q9Y4B6",
  "test": "affinity purification with mass spectrometry; HEK293T lysate (5 mg/mL) on resin carrying the DCAF1 ligand (16), 4 °C, 4 h, with or without preincubation with 100 µM free (16); TMT quantitative proteomics, two replicates",
  "settings": "remark: other sources report otherwise",
  "note": "Results are given in words; binding and its absence hold for the method and conditions named. In cells and extracts the contact can be indirect. These calls come from enrichment with a bait or labelling near it, and not all partners need be listed.",
  "data": [
    {"binder": "B1", "values": [
      {"measurement": "binding", "value": "binds"}
    ]}
  ]
}
